Laboratory results published in the supplement of paper PMC8866396.
± gives the standard deviation of the averaged measurements. Some of the results follow. This data set is noisy: repeats of one test often differ as much as different tests do.

Experiments:
IL-6-GFP PC-9GR = assay: IL-6-GFP fluorescence relative to DMSO control (fraction of control); higher = more IL-6-GFP expression; conditions: compound concentration: 10 uM; treatment time: 48 h
Procedure: (§1)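 IL-6-GFP-overexpressing PC-9 and PC-9GR EGFR-mutant lung cancer cells (3000 cells/well, 96-well) were treated for 48 h with each compound of the Selleck L2000 library at 10 uM. IL-6-GFP fluorescence was read on a high-content screening system, and viability by CCK-8 absorbance on a parallel plate set. Each value was normalised as compound well / DMSO control well; two independent replicates.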

IL-6-GFP PC-9 = assay: as above; conditions: compound concentration: 10 uM; treatment time: 48 h
Procedure: as §1

SMILES | IL-6-GFP fluorescence (IL-6-GFP PC-9GR) | IL-6-GFP fluorescence (IL-6-GFP PC-9)
COC1CC2CCC(C)C(O)(O2)C(=O)C(=O)N2CCCCC2C(=O)OC(C(C)CC2CCC(OP(C)(C)=O)C(OC)C2)CC(=O)C(C)/C=C(\C)C(O)C(OC)C(=O)C(C)CC(C)/C=C/C=C/C=C/1C (configuration not stated) [Ridaforolimus (Deforolimus, MK-8669)] | 1.04 ± 0.062 | 0.91 ± 0.06
CCc1cc2c(cc1N1CCC(N3CCOCC3)CC1)C(C)(C)c1[nH]c3cc(C#N)ccc3c1C2=O | 1.06 ± 0.2 | 0.957 ± 0.23
Cc1ccc(Cl)c(Nc2ccccc2C(=O)[O][Na])c1Cl [Meclofenamate Sodium] | 0.598 ± 0.074 | 0.913 ± 0.092
CNC(=O)c1c(C)oc2cc(Oc3ncnc4cc(OC)c(OC)cc34)ccc12 [Fruquintinib] | 0.906 ± 0.13 | 0.822 ± 0.14
O=C(O)CCCCC1CCSS1 (stereo not drawn) [(+)-α-Lipoic acid] | 0.531 ± 0.22 | 0.893 ± 0.028
COc1nc2ccc(Br)cc2cc1C(c1ccccc1)C(O)(CCN(C)C)c1cccc2ccccc12 (configuration not stated) [Bedaquiline] | 0.867 ± 0.086 | 0.783 ± 0.028
Cl.Cl.Cl.Cl.Cl.Cl.Cl.Cl.c1cc(CN2CCCNCCNCCCNCC2)ccc1CN1CCCNCCNCCCNCC1 [Plerixafor 8HCl (AMD3100 8HCl)] | 0.814 ± 0.19 | 0.824 ± 0.12
CCC(Nc1ncnc2[nH]cnc12)c1nc2cccc(F)c2c(=O)n1-c1ccccc1 (configuration not stated) [Idelalisib (CAL-101, GS-1101)] | 0.796 ± 0.34 | 0.996 ± 0.38
CC1(C)OC2CC3C4CC(F)C5=CC(=O)C=CC5(C)C4(F)C(O)CC3(C)C2(C(=O)CO)O1 (configuration not stated) [Fluocinolone Acetonide] | 0.835 ± 0.14 | 0.905 ± 0.35
CC(C)(C)OC(=O)NC1CCCCC/C=C\C2CC2(C(=O)NS(=O)(=O)C2CC2)NC(=O)C2CC(OC(=O)N3Cc4cccc(F)c4C3)CN2C1=O (configuration not stated) [Danoprevir (ITMN-191)] | 0.891 ± 0.016 | 0.8397 ± 0.0041
CC(C(=O)O)c1ccc(-c2ccccc2)c(F)c1 (configuration not stated) [Flurbiprofen] | 0.799 ± 0.36 | 0.904 ± 0.15
COc1ccc2c(c1)nc(S(=O)Cc1ncc(C)c(OC)c1C)[n]2[Na] (configuration not stated) [Esomeprazole sodium] | 0.799 ± 0.016 | 0.92 ± 0.21
O=C(O)Cc1ccccc1Nc1c(Cl)cccc1Cl.OCCN1CCCC1 [Diclofenac Epolamine] | 0.882 ± 0.03 | 0.833 ± 0.024
CC1=C(/C=C/C(C)=C/C=C/C(C)=C/C(=O)Nc2ccc(O)cc2)C(C)(C)CCC1 [Fenretinide] | 0.548 ± 0.14 | 0.27692 ± 8.3e-05
Cc1nc2ccc(CN(C)c3ccc(C(=O)NC(CCC(=O)O)C(=O)O)s3)cc2c(=O)[nH]1 (configuration not stated) [Raltitrexed] | 1.02 ± 0.076 | 0.99 ± 0.047
CN(C)CCCOc1nn(Cc2ccccc2)c2ccccc12.Cl [Benzydamine HCl] | 0.657 ± 0.19 | 0.809 ± 0.076
O=C([O-])c1cc(N=Nc2ccc(O)c(C(=O)[O-])c2)ccc1O.[Na+].[Na+] [Olsalazine Sodium] | 0.768 ± 0.069 | 0.708 ± 0.013
Nc1nc(=O)c2c(CCc3ccc(C(=O)NC(CCC(=O)[O-])C(=O)[O-])cc3)c[nH]c2[nH]1.[Na+].[Na+] (configuration not stated) [Pemetrexed] | 0.884 ± 0.22 | 0.945 ± 0.053
CC(C)(O)c1ccccc1CCC(SCC1(CC(=O)O)CC1)c1cccc(/C=C/c2ccc3ccc(Cl)cc3n2)c1 (configuration not stated) [Montelukast] | 0.927 ± 0.13 | 0.704 ± 0.029
Cc1nc(NC(=O)N2CCCC2C(N)=O)sc1-c1ccnc(C(C)(C)C(F)(F)F)c1 (configuration not stated) [Alpelisib (BYL719)] | 1.28 ± 0.35 | 1.08 ± 0.48
CN(C)CCN1C(=O)c2cccc3cc(N)cc(c23)C1=O [Amonafide] | 1.43 ± 0.28 | 1.23 ± 0.28

SMILES | IL-6-GFP fluorescence (IL-6-GFP PC-9GR) | IL-6-GFP fluorescence (IL-6-GFP PC-9)
CC12CCC(=O)C=C1CCC1C2C(O)CC2(C)C1CCC2(O)C(=O)CO (configuration not stated) [Hydrocortisone] | 0.739 ± 0.28 | 0.787 ± 0.099
COc1cc2nccc(Oc3ccc(NC(=O)Nc4cc(C)on4)c(Cl)c3)c2cc1OC [Tivozanib (AV-951)] | 1.04 ± 0.095 | 0.9917 ± 0.0075
Oc1ccc(/C=C/c2cc(O)cc(O)c2)cc1 [Resveratrol] | 0.927 ± 0.045 | 0.9 ± 0.071
CC1CCN(C(=O)CC#N)CC1N(C)c1ncnc2[nH]ccc12.O=C(O)CC(O)(CC(=O)O)C(=O)O (configuration not stated) | 0.7931 ± 0.0058 | 0.88 ± 0.18
CCCCCOC(=O)Nc1nc(=O)n(C2OC(C)C(O)C2O)cc1F (configuration not stated) [Capecitabine] | 1.13 ± 0.026 | 1.06 ± 0.11
COC(=O)NC(C(=O)N1CCCC1c1ncc(-c2ccc(-c3ccc(-c4cnc(C5CCCN5C(=O)C(NC(=O)OC)C(C)C)[nH]4)cc3)cc2)[nH]1)C(C)C (configuration not stated) | 0.979 ± 0.043 | 1.03 ± 0.18
CC(=O)Nc1ccccc1 [Acetanilide] | 0.949 ± 0.029 | 0.857 ± 0.048
CCCCC1(COC(=O)CCC(=O)O)C(=O)N(c2ccccc2)N(c2ccccc2)C1=O [Suxibuzone] | 0.495 ± 0.38 | 0.922 ± 0.19
CN1CCN(c2ccc(C(=O)Nc3n[nH]c4ccc(Cc5cc(F)cc(F)c5)cc34)c(NC3CCOCC3)c2)CC1 [Entrectinib (RXDX-101)] | 2 ± 0.45 | 1.56 ± 0.28
CCN(CC)CCNC(=O)c1c(C)[nH]c(/C=C2\C(=O)Nc3ccc(F)cc32)c1C [Sunitinib] | 1.93 ± 0.86 | 1.2 ± 0.47
CNC(=O)c1cc(Oc2ccc(NC(=O)Nc3ccc(Cl)c(C(F)(F)F)c3)c(F)c2)ccn1 [Regorafenib (BAY 73-4506)] | 0.958 ± 0.14 | 1.02 ± 0.067
O=C(O)C1CSCN1 (configuration not stated) [Timonacic] | 0.797 ± 0.25 | 0.762 ± 0.049
CC1(C)CCC(C)(C)c2cc(NC(=O)c3ccc(C(=O)O)cc3)ccc21 [Tamibarotene] | 0.658 ± 0.058 | 0.8095 ± 0.0046
COc1cc(C2Oc3ccc(C4Oc5cc(O)cc(O)c5C(=O)C4O)cc3OC2CO)ccc1O (configuration not stated) [Silymarin] | 0.702 ± 0.34 | 0.752 ± 0.13
Nc1ccccc1NC(=O)c1ccc(CNC(=O)OCc2cccnc2)cc1 [Entinostat (MS-275)] | 1.1 ± 0.042 | 1.1 ± 0.17
CCOc1cc2ncc(C#N)c(Nc3ccc(OCc4ccccn4)c(Cl)c3)c2cc1NC(=O)/C=C/CN(C)C [Neratinib (HKI-272)] | 0.846 ± 0.23 | 0.7012 ± 0.0068
O=C(O)Cc1ccccc1Nc1c(Cl)cccc1Cl [Diclofenac acid] | 0.867 ± 0.037 | 0.747 ± 0.12
CC(=O)Oc1ccccc1C(=O)O [Aspirin] | 0.926 ± 0.12 | 0.889 ± 0.26
CCCC1CC(C(=O)NC(C(C)O)C2OC(SC)C(O)C(O)C2O)N(C)C1.Cl (configuration not stated) [Lincomycin HCl] | 1.11 ± 0.07 | 0.957 ± 0.23
CC(C(=O)O)c1ccc(C(=O)c2ccccc2)s1 (configuration not stated) [Tiaprofenic acid] | 0.911 ± 0.046 | 0.884 ± 0.022
CN(C)C/C=C/C(=O)Nc1cc2c(Nc3ccc(F)c(Cl)c3)ncnc2cc1OC1CCOC1 (configuration not stated) [Afatinib (BIBW2992)] | 1.19 ± 0.13 | 1.12 ± 0.097

SMILES | IL-6-GFP fluorescence (IL-6-GFP PC-9GR) | IL-6-GFP fluorescence (IL-6-GFP PC-9)
Cc1c(-c2ccc(O)cc2)n(Cc2ccc(OCCN3CCCCCC3)cc2)c2ccc(O)cc12.Cl [Bazedoxifene HCl] | 0.853 ± 0.16 | 0.992 ± 0.12
CC(=O)Oc1cccc2c1C(=O)c1c(OC(C)=O)cc(C(=O)O)cc1C2=O [Diacerein] | 0.715 ± 0.049 | 0.91 ± 0.17
CCC(=O)NS(=O)(=O)c1ccc(-c2c(-c3ccccc3)noc2C)cc1 [Parecoxib] | 0.438 ± 0.38 | 1.13 ± 0.16
Cc1cc2ncc(C(=O)NCC(C)(C)NCC(=O)N3CCCC3C#N)cn2n1 (configuration not stated) [Anagliptin] | 0.712 ± 0.23 | 0.933 ± 0.18
CN1C(C(=O)Nc2ccccn2)=C(O)c2ccccc2S1(=O)=O [Piroxicam] | 1.14 ± 0.48 | 1.25 ± 0.029
COc1ccnc(CS(=O)c2nc3ccc(-n4cccc4)cc3[nH]2)c1C (configuration not stated) [Ilaprazole] | 0.99 ± 0.32 | 0.94 ± 0.27
CC(C(=O)O)c1ccc(C(=O)c2cccs2)cc1 (configuration not stated) [Suprofen] | 0.568 ± 0.23 | 0.726 ± 0.047
Cc1ccc(C(C)C)c(O)c1 [Thymol] | 1.18 ± 0.37 | 0.857 ± 0.072
COc1ccc2c(c1)c(CC(=O)OCC(=O)O)c(C)n2C(=O)c1ccc(Cl)cc1 [Acemetacin] | 1.18 ± 0.44 | 0.758 ± 0.12
CC(C)CC(NC(=O)C(Cc1ccccc1)NC(=O)c1cnccn1)B(O)O (configuration not stated) [Bortezomib (PS-341)] | 1.1 ± 0.12 | 1.1 ± 0.27
NCCNc1ccc(NCCN)c2c1C(=O)c1ccncc1C2=O.O=C(O)/C=C\C(=O)O.O=C(O)/C=C\C(=O)O [Pixantrone Maleate] | 0.747 ± 0.018 | 0.759 ± 0.07
Cl.N=C1CCCN1Cc1[nH]c(=O)[nH]c(=O)c1Cl [Tipiracil hydrochloride] | 0.8336 ± 0.0057 | 0.82 ± 0.17
CC/C(=C(\c1ccccc1)c1ccc(OCCN(C)C)cc1)c1ccccc1.O=C(O)CC(O)(CC(=O)O)C(=O)O [Tamoxifen] | 1 ± 0.057 | 0.889 ± 0.078
COc1cccc2c1C(=O)c1c(O)c3c(c(O)c1C2=O)CC(O)(C(=O)CO)CC3OC1CC(N)C(O)C(C)O1.Cl (configuration not stated) [Epirubicin HCl] | 0.742 ± 0.21 | 0.768 ± 0.23
Cl.O=C1NCC2(CCN(CCc3ccccc3)CC2)O1 [Fenspiride HCl] | 0.699 ± 0.13 | 0.962 ± 0.087
COc1c2ccoc2cc2oc(=O)ccc12 [Bergapten] | 0.793 ± 0.18 | 0.807 ± 0.31
COc1cc2c(cc1OC)C1CC(OC(=O)C(N)C(C)C)C(CC(C)C)CN1CC2.Cc1ccc(S(=O)(=O)O)cc1.Cc1ccc(S(=O)(=O)O)cc1 (configuration not stated) [Valbenazine tosylate] | 2.49 ± 0.05 | 2.009 ± 0.018
CS(=O)(=O)O.N#CC1(c2ccc(NC(=O)c3cccnc3NCc3ccncc3)cc2)CCCC1 | 0.777 ± 0.27 | 0.97 ± 0.27
CC(=O)OC1(C(C)=O)CCC2C3C=C(Cl)C4=CC(=O)C5CC5C4(C)C3CCC21C (configuration not stated) [Cyproterone Acetate] | 0.77 ± 0.26 | 0.783 ± 0.013

Exported tab-delimited: entries from further up.
SMILES	IL-6-GFP fluorescence (IL-6-GFP PC-9GR)	IL-6-GFP fluorescence (IL-6-GFP PC-9)
Cc1nc2ccc(CN(C)c3ccc(C(=O)NC(CCC(=O)O)C(=O)O)s3)cc2c(=O)[nH]1 (configuration not stated) [Raltitrexed]	1.02 ± 0.076	0.99 ± 0.047
O=C(O)C1CSCN1 (configuration not stated) [Timonacic]	0.797 ± 0.25	0.762 ± 0.049
Nc1ccccc1NC(=O)c1ccc(CNC(=O)OCc2cccnc2)cc1 [Entinostat (MS-275)]	1.1 ± 0.042	1.1 ± 0.17
